Earlier results, collected in US8946226B2, “Use of CDK inhibitor for the treatment of glioma” (Nerviano Medical Sciences S.r.l., priority 2008, dated 2015).
At least one compound was matched to its structure with a doubt left.

System: GBM
Conditions: concurrent temozolomide and radiotherapy (TMZ/RT), cited from earlier work

Cn1nnc2c(C(N)=O)ncn2c1=O [temozolomide]
2-year survival rate (10% for the RT group): 26%
median survival time (12 months with RT alone): 15 months
